Experimental data: publication PMC9278858
Results are given in words; binding and its absence hold for the method and conditions named. Binding seen in cells or lysates may run through a third protein. Here binding means that the protein was enriched with, or labelled near, the bait; the list need not be complete. For part of these data: No binding means not detected with the bait. For part of these data: Tags and fused reporters may be left off the sequences shown. One block for each binder: values may come before it.

Protein sequences, listed by entry. Tags and fused reporters are not part of them.
UniProt Q00416: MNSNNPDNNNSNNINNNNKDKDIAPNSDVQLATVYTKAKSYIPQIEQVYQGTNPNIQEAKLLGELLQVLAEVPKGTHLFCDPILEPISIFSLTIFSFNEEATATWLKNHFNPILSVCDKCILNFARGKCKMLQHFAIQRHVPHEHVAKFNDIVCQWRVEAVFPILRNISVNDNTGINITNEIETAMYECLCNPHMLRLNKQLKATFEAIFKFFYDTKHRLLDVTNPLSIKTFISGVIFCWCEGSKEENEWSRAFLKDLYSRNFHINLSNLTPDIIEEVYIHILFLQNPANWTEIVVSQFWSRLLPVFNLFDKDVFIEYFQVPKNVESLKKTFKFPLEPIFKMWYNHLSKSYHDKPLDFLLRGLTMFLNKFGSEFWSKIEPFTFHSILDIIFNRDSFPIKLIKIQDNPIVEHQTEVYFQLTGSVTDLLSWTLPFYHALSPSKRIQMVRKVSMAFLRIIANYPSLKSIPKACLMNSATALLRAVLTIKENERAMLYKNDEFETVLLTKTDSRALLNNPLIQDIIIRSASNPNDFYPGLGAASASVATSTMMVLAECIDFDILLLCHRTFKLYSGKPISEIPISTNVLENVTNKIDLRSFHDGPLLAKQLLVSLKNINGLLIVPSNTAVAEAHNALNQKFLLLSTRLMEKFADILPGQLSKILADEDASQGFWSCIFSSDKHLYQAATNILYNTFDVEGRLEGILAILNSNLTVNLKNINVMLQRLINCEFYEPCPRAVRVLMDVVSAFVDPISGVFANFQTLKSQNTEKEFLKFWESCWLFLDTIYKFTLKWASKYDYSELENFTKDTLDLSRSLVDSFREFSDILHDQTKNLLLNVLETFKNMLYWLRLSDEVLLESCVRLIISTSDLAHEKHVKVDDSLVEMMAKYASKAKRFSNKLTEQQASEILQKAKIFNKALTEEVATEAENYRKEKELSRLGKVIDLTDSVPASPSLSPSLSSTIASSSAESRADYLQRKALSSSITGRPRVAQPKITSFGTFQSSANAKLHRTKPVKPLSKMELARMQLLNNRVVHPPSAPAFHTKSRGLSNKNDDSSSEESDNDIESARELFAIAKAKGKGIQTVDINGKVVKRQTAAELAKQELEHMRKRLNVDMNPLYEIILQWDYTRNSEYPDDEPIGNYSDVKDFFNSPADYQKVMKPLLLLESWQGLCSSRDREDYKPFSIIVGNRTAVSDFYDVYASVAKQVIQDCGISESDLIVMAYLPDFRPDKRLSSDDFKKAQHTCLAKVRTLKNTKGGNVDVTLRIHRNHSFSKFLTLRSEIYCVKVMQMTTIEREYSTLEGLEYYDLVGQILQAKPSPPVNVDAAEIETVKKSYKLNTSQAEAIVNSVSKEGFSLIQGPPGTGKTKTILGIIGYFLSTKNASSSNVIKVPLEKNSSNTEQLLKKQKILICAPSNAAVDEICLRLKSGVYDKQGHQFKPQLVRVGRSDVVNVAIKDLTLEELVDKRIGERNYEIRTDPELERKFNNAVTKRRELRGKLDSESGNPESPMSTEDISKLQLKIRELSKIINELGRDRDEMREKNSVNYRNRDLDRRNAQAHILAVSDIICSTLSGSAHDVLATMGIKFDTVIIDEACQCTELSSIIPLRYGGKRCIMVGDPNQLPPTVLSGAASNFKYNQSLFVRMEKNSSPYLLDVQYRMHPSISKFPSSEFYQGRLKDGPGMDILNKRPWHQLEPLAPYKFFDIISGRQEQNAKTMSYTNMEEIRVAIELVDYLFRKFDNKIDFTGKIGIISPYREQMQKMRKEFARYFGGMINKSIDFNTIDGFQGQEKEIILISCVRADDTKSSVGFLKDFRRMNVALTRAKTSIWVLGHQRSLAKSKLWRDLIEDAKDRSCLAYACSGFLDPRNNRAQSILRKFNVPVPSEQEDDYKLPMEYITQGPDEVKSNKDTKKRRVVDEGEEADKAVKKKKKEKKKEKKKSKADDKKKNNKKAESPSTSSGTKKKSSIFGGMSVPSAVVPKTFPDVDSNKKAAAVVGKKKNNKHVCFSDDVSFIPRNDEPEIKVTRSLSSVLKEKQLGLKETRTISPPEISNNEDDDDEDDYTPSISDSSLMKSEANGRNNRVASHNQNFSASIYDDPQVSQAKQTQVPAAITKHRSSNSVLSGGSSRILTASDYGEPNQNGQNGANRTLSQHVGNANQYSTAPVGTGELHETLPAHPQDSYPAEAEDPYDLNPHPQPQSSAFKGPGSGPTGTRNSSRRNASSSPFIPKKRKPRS

What was measured:
[1] = biological target: T1, Rpc160-HTP (largest subunit of RNAPIII, C-terminally His6–TEV–Protein A tagged) (S. cerevisiae) (UniProt P04051); experiment: affinity purification with mass spectrometry; Rpc160-HTP as bait in WT (SEN1) or sen1-3 cells; IgG-coupled Dynabeads, 2 hours at 4°C; no RNase A treatment; label-free quantitative MS against an untagged control
T1 sequence: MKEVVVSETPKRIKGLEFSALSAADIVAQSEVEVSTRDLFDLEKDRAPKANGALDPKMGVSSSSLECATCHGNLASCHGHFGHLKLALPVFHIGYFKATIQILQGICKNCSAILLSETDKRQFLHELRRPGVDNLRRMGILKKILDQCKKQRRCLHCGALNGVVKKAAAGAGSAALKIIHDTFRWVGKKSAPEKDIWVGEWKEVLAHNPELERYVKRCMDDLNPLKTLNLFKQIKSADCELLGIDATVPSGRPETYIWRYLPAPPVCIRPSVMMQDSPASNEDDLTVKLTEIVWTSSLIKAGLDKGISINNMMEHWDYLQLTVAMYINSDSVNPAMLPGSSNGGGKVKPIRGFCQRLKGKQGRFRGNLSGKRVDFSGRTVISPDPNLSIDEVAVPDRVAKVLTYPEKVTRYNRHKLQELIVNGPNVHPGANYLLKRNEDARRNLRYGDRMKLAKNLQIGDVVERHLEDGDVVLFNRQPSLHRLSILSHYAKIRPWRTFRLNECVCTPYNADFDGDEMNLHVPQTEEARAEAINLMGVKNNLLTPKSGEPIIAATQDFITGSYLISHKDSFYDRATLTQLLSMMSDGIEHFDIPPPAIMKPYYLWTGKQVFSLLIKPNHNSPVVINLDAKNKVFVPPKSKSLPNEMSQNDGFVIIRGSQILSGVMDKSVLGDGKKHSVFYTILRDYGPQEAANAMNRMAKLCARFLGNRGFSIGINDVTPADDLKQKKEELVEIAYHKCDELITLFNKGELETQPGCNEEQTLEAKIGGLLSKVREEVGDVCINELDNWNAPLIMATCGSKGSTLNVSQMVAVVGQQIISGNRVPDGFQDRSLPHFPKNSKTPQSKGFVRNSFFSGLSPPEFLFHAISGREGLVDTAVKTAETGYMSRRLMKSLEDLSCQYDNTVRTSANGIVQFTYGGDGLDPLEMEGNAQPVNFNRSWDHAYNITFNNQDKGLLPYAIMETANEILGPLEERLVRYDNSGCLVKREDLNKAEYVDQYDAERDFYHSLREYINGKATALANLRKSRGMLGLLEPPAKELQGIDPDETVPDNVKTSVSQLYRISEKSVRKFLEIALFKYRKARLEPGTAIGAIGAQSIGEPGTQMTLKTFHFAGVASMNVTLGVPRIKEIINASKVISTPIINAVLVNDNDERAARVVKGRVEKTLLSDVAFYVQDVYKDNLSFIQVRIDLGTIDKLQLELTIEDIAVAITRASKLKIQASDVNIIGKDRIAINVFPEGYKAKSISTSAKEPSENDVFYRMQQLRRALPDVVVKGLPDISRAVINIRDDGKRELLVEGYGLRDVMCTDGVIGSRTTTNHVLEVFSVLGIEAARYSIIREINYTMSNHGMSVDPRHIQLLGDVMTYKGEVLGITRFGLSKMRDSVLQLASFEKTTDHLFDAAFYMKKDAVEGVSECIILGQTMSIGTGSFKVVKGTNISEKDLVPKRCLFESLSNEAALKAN

[2] = biological target: TAP-Sen1 (full-length Sen1 fused to a tandem affinity purification tag, expressed from pGAL1) (S. cerevisiae) (UniProt Q00416); experiment: affinity purification with mass spectrometry; TAP-tagged Sen1 versions (full length, ΔNTD, NTD) overexpressed from pGAL1 as baits; yeast lysates in 10 mM sodium phosphate pH 7.5, 200 mM sodium acetate, 0.25% NP-40, treated with RNase A; IgG Sepharose; elution by TEV cleavage; untagged control
[3] = biological target: Sen1-TAP (wild-type Sen1 fused to a TAP tag) (S. cerevisiae) (UniProt Q00416); experiment: affinity purification with mass spectrometry; Sen1-TAP or Sen1-3–TAP as bait; yeast lysates; untagged control

binding [1]: no binding
binding [2]: binds
binding [3]: binds
B1: Mrc1 (protein, UniProt P25588 1-1096)
chain: MDDALHALSSLTAKKRTTTYKKVAVPILDENDNTNGNGPNDIDNPPELTGNGFLFANATLNRVKNRLEGKKAPEQNHNNGKDRSENSLPTQLISNLYDGGEELEKSEVKDNSYSEKNVSSSFTQTQRIPVSIQQDKVFNVPIHSVNDGKPTQLIKEDGLVNETSQALKTPLTTGRPGATQRIDSSGATSQTQPIKSIEPQSQIITTSSNHSNALSPKIPIIPTELIGTSPLFQSIQNRGPDTQMDVPPQTAHDEDKTQAIGIPQATHQEQKTQIDTVAQTLQDEVPHTLKIREIQSELASEDSKREKARNVEYKKPQKPIPTKKFFSKESFLADFDDSSSNEDDDIKLENAHPKPVQNDDELHENKSVELNLTDETRINEKRVPLLSSYANNLKREIDSSKCITLDLDSDSDEYGDDDMDSIKLSKDESVLPISQLSKATILNLKARLSKQNQKLSQRPNKSKDPKVDHNVLLNTLRKASRKQILDHQKEVIETKGLKLEDMAKEKEIVENLLEQEILRNKRIRQKEKRREKLEENDFQLNAHDSGSDSGSESSGFALSGNEIADYESSGSENDNRRESDSEKEDDEIILKQKKSHHVKHIINESDSDTEVEAKPKEKADESLPKRIAINLGHYGDNIGEDTDKFQETNVLDTQNIEEVMAERNTIENEVKDDVYVNEEADEAIRRQLIDKEKLQLKQKEKEHEAKIKELKKRGVTNFFEMEAEESEDEWHGIGGADGEGSDDYDSDLEKMIDDYSKNNFNPHEIREMLAAENKEMDIKMINKILYDIKNGGFRNKRAKNSLELELSDDDEDDVLQQYRLKRRELMRKRRLEIGDDAKLVKNPKSSAFFESMVEDIIEYKNPFGAEEEYNLDITSTATDLDTQDNSINVGDNTGNNEQKPVDQKNKKVIISEDFVQKSLSFLKSNNYEDFETDKELSRIQHGNDEAIEDLYTLKQNSSIKSFTNSQTDSTTSKTVNTIIDLEKRPEDEDEVENGDTSLVGVFKHPSIIKSFASRTDINDKFKEGNKTVKILKSYKTVGSSKASITYMGKTRKLIAPKRKTEGSHRYHHDHHNKKMKMKTKTKSNKLFESGQDSFDN

binding [1]: no binding
binding [2]: binds
binding [3]: binds
B2: Ctf4 (protein, UniProt Q01454 1-927)
chain: MVSVIDKLVFDFGGKTLVSLAPDNNTLCVANKNGLTKILKTNNPEEEPETLDSSKLVSSIKCYSNSHFLMTTMQGDALRYNIDSSQEELLARFALPLRDCCVIHSGKMAVFGGDDLELILLELDDETHKKHAIKIDEQVSQISYNSQMNILAVSMINGKVQIFSLTSTIPNKVHELNDYIVANSYDDTHRDKILSNMMDDIDKDNDNDLSETADPDENNVADPEFCAANRICTRVAWHPKGLHFALPCADDTVKIFSIKGYSLQKTLSTNLSSTKAHFIDLQFDPLRGTYIAAVDLNNKLTVWNWETSEIHYTREFKRKITNIAWKIQADSKTLDLVLGTWSGSIAIVQNLAESVVSNIPDQSVAESSTKHGLFVDSESDLENLEGNDDINKSDKLFSDITQEANAEDVFTQTHDGPSGLSEKRKYNFEDEEDFIDDDDGAGYISGKKPHNEHSYSRVHKTHSFPISLANTGKFRYMPFSPAGTPFGFTDRRYLTMNEVGYVSTVKNSEQYSITVSFFDVGRFREYHFEDLFGYDLCFLNEKGTLFGQSKTGQIQYRPHDSIHSNWTKIIPLQAGERITSVAATPVRVIVGTSLGYFRSFNQFGVPFAVEKTSPIVALTAQNYRVFSVHYSQFHGLSYSLSELGTSSKRYYKRECPLPMSLPNINSDMKKDANLDYYNFNPMGIKSLFFSSYGDPCIFGSDNTLLLLSKWRSPEESKWLPILDSNMEIWKMSGGKETTDIHVWPLALAYDTLNCILVKGKHIWPEFPLPLPSEMEIRMPVFVKSKLLEENKAILNKKNEIGADTEAEEGEEDKEIQIPVSMAAEEEYLRSKVLSELLTDTLENDGEMYGNENEVLAALNGAYDKALLRLFASACSDQNVEKALSLAHELKQDRALTAAVKISERAELPSLVKKINNIREARYEQQLK
